Laboratory results published in PubChem BioAssay AID2685 (National Center for Advancing Translational Sciences (NCATS), 2010).
This is one part of the list. The main result of the screen is listed elsewhere. These columns were measured beside it and carry no call. The list favours compounds with an active or inconclusive main result. The note in brackets gives the kind of curve behind each potency; many fits are weak.

Test: qHTS Assay for Lipid Storage Modulators in Drosophila S3 Cells;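 for cell number change: cells counted by Cell Tracker Red CMTPX staining in the red channel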
Settings: BODIPY lipid droplet fluorescence, 18-24 h; for cell number change: measured here: cell count max response, cells fed with added oleic acid
In short: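 Drosophila S3 cells loaded with oleic acid (400 uM, as added) and compounds at several concentrations; lipid droplets imaged by 488-nm laser-scanning cytometry, 500–530 nm intensity and object ratio to cell channel. Percent activity normalized to 20 uM Triacsin C.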

[1] = measured here: lipid fluorescence (Fed channel) AC50, cells fed with added oleic acid
[2] = measured here: cell number channel AC50, cells fed with added oleic acid

Structure (SMILES) | cell number change | AC50 [1] | AC50 [2]
O/N=C/c1ccccc1OCc1ccccc1Cl | -25.9% | 20.6 µM [falling, single point] | –
COc1ccc(CCN(C)CC(O)c2ccccc2)cc1OC (stereo not drawn) | 2.73% | – | –
COc1ccccc1CCNC(=O)CCn1nc(C)c2c(C)n(-c3ccccc3)nc2c1=O | – | 6.51 µM [falling, single point] | –
COc1cccc(CCNC(=O)c2ccc(OC)c(OC3CCN(C(C)C)CC3)c2)c1 | 8.5% | – | 0.0146 µM [rising, full curve, poor fit]
Cc1ccc(-c2csc(-c3ccncc3)n2)cc1 | 2.07% | – | 0.0259 µM [rising, full curve, poor fit]
CCOC(=O)Nc1ccc(NC(=O)c2ccccc2F)cc1 | 133% | 0.731 µM [falling, single point] | 23.1 µM [rising, single point]
Cc1ccc(-n2nnnc2-c2cnc(-c3cccnc3)nc2C(F)(F)F)cc1 | -32.2% | 6.51 µM [rising, single point] | –
O=c1cc(O)c2sc3nc(-c4cccnc4)cc(C(F)(F)F)c3c2[nH]1 | 122% | 1.84 µM [rising, partial curve] | –
CCOC(=O)N1CCN(C(=O)C(NC(=O)c2ccco2)C(C)C)CC1 (stereo not drawn) | 6.99% | 0.00411 µM [rising, full curve, poor fit] | –
Cc1cc(Cn2nc(C(=O)NCC3CC3)cc2-c2ccccc2)on1 | -39.5% | 29.1 µM [falling, single point] | 29.1 µM [falling, single point]
Cc1ccccc1Nc1nc(=O)c2cc([N+](=O)[O-])ccc2s1 | -19.8% | 29.1 µM [falling, single point] | –
O=C(NCCc1cccc(Cl)c1)c1ccc(OC2CCN(Cc3ccccn3)CC2)cc1 | 1.16% | 29.1 µM [falling, single point] | –
O=C1c2ccccc2C(=O)N1CCCn1nnc(-c2ccc(N3CCOCC3)cc2)n1 | 2.16% | 0.00461 µM [rising, partial curve, poor fit] | –
CCC(NC(=O)NCc1ccc2c(c1)OCO2)(C(F)(F)F)C(F)(F)F | 16.9% | 6.51 µM [rising, partial curve] | –
COc1ccc(N2CCN(CC(=O)Nc3ccccc3C(=O)NCc3ccccc3)CC2)cc1 | -4.4% | 6.51 µM [rising, partial curve] | –
CN(C(=O)CSc1nnc(C2CC2)n1C)C1CCCc2ccccc21 (stereo not drawn) | -14.1% | – | –
CCN(c1ccc(OC)cc1)S(=O)(=O)c1ccc2c(c1)CCN2C(=O)CCC(=O)O | -47.8% | – | 29.1 µM [falling, single point]

Single records (already shown). Values in the order: cell number change | AC50 [1] | AC50 [2]
`O=c1cc(O)c2sc3nc(-c4cccnc4)cc(C(F)(F)F)c3c2[nH]1` in the list: 122% | 1.84 µM [rising, partial curve] | –
`Cc1ccc(-n2nnnc2-c2cnc(-c3cccnc3)nc2C(F)(F)F)cc1` in the list: -32.2% | 6.51 µM [rising, single point] | –
